Library screening results

By UniProt entry, the sequences of proteins in these tests, tags left out.
UniProt E9BF75, entry or part of it: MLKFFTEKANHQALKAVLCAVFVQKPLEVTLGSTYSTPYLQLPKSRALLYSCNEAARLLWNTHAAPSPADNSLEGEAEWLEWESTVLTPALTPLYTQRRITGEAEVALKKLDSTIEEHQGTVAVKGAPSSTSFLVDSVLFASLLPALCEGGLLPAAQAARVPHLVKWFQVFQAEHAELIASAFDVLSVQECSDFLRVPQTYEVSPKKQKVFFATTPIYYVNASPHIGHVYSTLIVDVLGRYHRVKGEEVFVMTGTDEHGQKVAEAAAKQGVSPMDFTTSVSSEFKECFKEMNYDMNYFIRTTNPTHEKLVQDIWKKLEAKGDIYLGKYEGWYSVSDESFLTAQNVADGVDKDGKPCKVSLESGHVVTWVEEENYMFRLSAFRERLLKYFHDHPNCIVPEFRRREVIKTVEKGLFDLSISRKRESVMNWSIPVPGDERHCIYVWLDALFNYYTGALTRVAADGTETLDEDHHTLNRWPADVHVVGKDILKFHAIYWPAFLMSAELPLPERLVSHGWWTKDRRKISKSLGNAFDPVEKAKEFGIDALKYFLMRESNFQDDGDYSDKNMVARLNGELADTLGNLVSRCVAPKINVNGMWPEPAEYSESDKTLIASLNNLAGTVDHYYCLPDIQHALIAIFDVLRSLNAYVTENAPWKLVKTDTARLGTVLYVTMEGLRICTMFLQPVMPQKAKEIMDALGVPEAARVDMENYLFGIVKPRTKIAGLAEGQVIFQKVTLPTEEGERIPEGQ

From ChEMBL document CHEMBL3988442, “University of Dundee, Small-Polar-MMV Screening Library” (2021).

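Methionyl-tRNA synthetase (putative), Leishmania donovani (UniProt E9BF75). Primary screen of methionyl-tRNA synthetase; the read-out is not stated. The test concentration is not given. Values are per cent inhibition. Size under these conditions: about 68,000 compounds, about 24 of them at 50% or above in at least one test.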

All values are in %. The record does not define 0% and 100%; most values in the screen are far below 50% and negative numbers occur (in some assays of this library far below -100). Compounds were drawn at random from those tested, without regard to their results.

structure	inhibition
Cc1ccc(O[C@@H]2C[C@H]3CN(c4ncc(F)cn4)CCN3C2)cc1	17.03%
Clc1ccccc1-c1nnc(CNCCn2cccn2)o1	9.859%
O=C(Nc1ccccc1)c1nn(C2CCS(=O)(=O)C2)c2c1CCCC2 (configuration not stated)	16.2%
CN(Cc1ccccn1)C(=O)c1ccc2c(c1O)OC(C)(C)C2	0%
OC1(CNc2cccc(F)c2)CCNCC1	15.09%
CCC(O)CN1CCN(C(=O)c2cccn2Cc2cccnc2)CC1 (configuration not stated)	3.614%
CN(C)[C@@H]1CN(C(=O)CCc2ccccc2)[C@@H]2CCCO[C@H]12	3.636%
Cc1ccc(=O)n(Cc2csc(N(C)C3CC3)n2)n1	6.593%
Cc1nc(C)n(CC2CCCN2Cc2cn3cc(Cl)ccc3n2)n1 (configuration not stated)	14.74%
CSc1ccc(NC(=O)NCC(O)C2CC2)cc1F (configuration not stated)	11.52%
O=S(=O)(NCCn1ccc(-c2ccccn2)n1)C1CC1	8.696%
CCc1cnc(CN(C)C(C)C(=O)N2CCc3ccccc3C2)s1 (configuration not stated)	13.86%
Cc1ccccc1C(=O)N1CC[C@H](O)[C@@H](N2CCOCC2)CC1	19.69%
CNC(=O)NC(=O)CCN1CCN(c2nccs2)CC1	7.229%
Cn1ccc(C(=O)N2CCCC2c2cc(CO)[nH]n2)n1 (configuration not stated)	8.721%
CC(=O)NCCCOc1c(C)cccc1Cl	9.157%
CCCC(O)CN1CC(C)(C)CN(C(=O)c2ccc(Cl)cc2)CC1=O (configuration not stated)	8.378%
Cc1nc(C2CCCN(c3ncc(Br)cn3)C2)no1 (configuration not stated)	7.379%
COCCC(=O)N1C[C@@H]2COC[C@]2(COCc2cccnc2)C1	-5.882%
CN1C(=O)C2(CCN(C(=O)c3cccnc3)CC2)c2cccc(F)c21	9.343%
O=C1CCC2(CCN(CC[C@@H](O)c3ccccc3)CC2)CN1CC1CC1	5%
COc1ccc(Cl)cc1CCNC(=O)NCc1cnn(C)c1C	9.922%
COc1ccc(C)cc1C(C)NC(=O)Cn1ccc(=O)n(C)c1=O (configuration not stated)	24.59%
Cc1nc(C)n(CC2CCCCN2CC(=O)NC2CCOCC2)n1 (configuration not stated)	11.74%
CN(CCO)C(=O)c1coc(CN2CCN(c3ccccc3F)CC2)n1	5.854%
CN(C)C(=O)Cn1ccc2cc(NC(=O)N3CCOCC3)ccc21	1.37%
CCc1nc(CN2CCCN(c3ncnc4sccc34)CC2)no1	18.63%
COCCC(=O)N1CCCC1c1nc(C)c2c(n1)N(C)C(=O)CC2 (configuration not stated)	14.95%
c1cnn(CCCO[C@@H]2CC[C@H]3[C@H]2OCCN3CC2CC2)c1	14.52%
COCCN1CCN(C(=O)C[C@@H]2C[C@@H](C(C)C)[C@H](CC#N)C=C2C)CC1	13.19%
O=C(CN(C1=NCCCCC1)c1ccc(Cl)cc1)c1ccccc1	16.91%
Cc1nccn1-c1ccc(CN2CC3C[C@@H](O)CN3C[C@@H]2C)cc1 (some centres not stated)	12.07%
Cc1cc(NC(=O)CNCc2csc(-c3ncccn3)n2)ccc1Cl	9.091%
Cc1ncsc1CCN(C)C(=O)CCc1nc2cccnc2n1C	-1.412%
NC1(C(=O)NCCC2CN(Cc3ccco3)CCO2)CCCC1 (configuration not stated)	15.89%
Cc1ccccc1C(C(=O)NCCN1CCC(CO)CC1)N(C)C (configuration not stated)	17.36%
CCN1CCC2(CC1)CC(NC(=O)c1c[nH]cn1)c1ccccc1O2 (configuration not stated)	15.69%
COCCN1CCC(CNC(=O)C2(C#N)CCCC2)CC1	1.381%
O=C(Nc1ncc[nH]1)c1cc(-c2cccnc2)n[nH]1	7.317%
CC(C)N1CCN(C(=O)Cc2csc(-c3ccco3)n2)CC1	7.163%
CC(=O)NCc1nccnc1C1CCN(C(=O)c2cc[nH]n2)CC1	14.17%
NC(=O)C1CCN(c2nc3nccc(-c4ccccn4)c3c(=O)[nH]2)CC1	8.451%
CCCN(CC)C(=O)c1ncn2c1CN(C)S(=O)(=O)c1ccccc1-2	19.02%
CN(Cc1cnn(C)c1)C(=O)NC1CCN(c2ncccn2)CC1	4.453%
OC1=C2C(=Nc3n[nH]c(O)c3C2c2ccco2)CCC1 (configuration not stated)	8.467%